Measured values from patent US11103698B2, “Using alternating electric fields to increase cell membrane permeability” (The Board of Trustees of the Leland Stanford Junior …, priority 2018, dated 2021).
At least one structure is not confirmed: it was looked up by name or label, or the drawing left a doubt.

Tests used:
GBM39 cells (GBM39/Luc) = assay: Sensitivity to drug and synergy with TTFields; format: cell-based, human; conditions: TTFields for 3 days vs no TTFields
glioblastoma = glioblastoma patients on maintenance temozolomide chemotherapy; cited from earlier work

For Cn1nnc2c(C(N)=O)ncn2c1=O [Temozolomide], the “sensitivity of cells to various concentrations of drug” value (GBM39 cells (GBM39/Luc)) is listed as “improves the sensitivity” and the “prolongation of median survival by TTFields” value (glioblastoma) is listed as 5 months.
